Substitutions are numbered along the chain they refer to. These are yes or no findings as the source states them, for the method shown. Some entries that bind do so weakly or less than the wild type. Sequences can lack the tags named with a protein.
B1: PI37013 (antibody, human IgG1, kappa, V domains shown)
VH: EVQLLESGGGLVQPGGSLRLSCAASGFTFSNYYMAWVRQAPGKGLEWVSSLTNSGGSTYYADSVKGRFTISRDNSKNTLYLQMNSLRAEDTAVYYCTREWAGSGYFDYWGQGTLVTVSS
VL: DIQMTQSPSSLSASVGDRVTMTCKASQNVGNNLAWYQQKPGKAPKLLLYYTSNRFTGVPSRFSGSGSGTDFTLTISSVQPEDFATYYCQRIYNSPWTFGQGTKLELKR
B2: PI37014 (antibody, human IgG1, kappa, V domains shown)
VH: B1 VH with S49A, I70L
VL: B1 VL with M21I, L48I, V78L, L106I

Biological target: T1, TREM2 human IgG1 Fc fusion protein (human) (UniProt Q9NZC2)
T1 sequence: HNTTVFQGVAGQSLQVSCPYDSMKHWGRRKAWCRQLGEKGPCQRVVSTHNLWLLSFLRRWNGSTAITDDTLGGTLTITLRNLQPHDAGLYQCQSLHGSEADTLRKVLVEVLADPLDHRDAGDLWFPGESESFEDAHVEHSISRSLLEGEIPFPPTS
Experiment: SPR on human TREM2-Fc

Binder | binding
B1 | binds
B2 | binds
